# Measured values taken from the supplement of paper PMC8256030.
# Several values for one entry are separate records, joined by “and”; a condition that tells them apart may be missing. Equal entries are not always repeated. Structures can show the parent of a compound that is named as a salt. This is one part of the list. Single values are uncertain here, since repeats match poorly.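 HEK293T cells were given each compound shortly before transfection with a reporter in which red mCherry is followed by the SARS-CoV-2 frameshift element and then GFP in the −1 frame, so GFP appears only after frameshifting.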
# Test system: HEK293T
# Test: percent viability (nuclei count) relative to control; higher = more viable cells
# Conditions: 10 µM; 24 h
row,SMILES,percent viability
1,CCN(CC)CCOC(=O)C1(c2ccccc2)CCCC1 [caramiphen],102%
2,CC(C)(Sc1cc(C(C)(C)C)c(O)c(C(C)(C)C)c1)Sc1cc(C(C)(C)C)c(O)c(C(C)(C)C)c1 [probucol],292%
3,NCCCC(O)(P(=O)(O)O)P(=O)(O)O [alendronic acid],31.2%
4,CC(=O)N(CC(O)CN(C(C)=O)c1c(I)c(C(=O)NCC(O)CO)c(I)c(C(=O)NCC(O)CO)c1I)c1c(I)c(C(=O)NCC(O)CO)c(I)c(C(=O)NCC(O)CO)c1I (stereo not given) [iodixanol],111%
5,NC(=O)[C@@H]1CCCN1C(=O)[C@H](Cc1c[nH]cn1)NC(=O)[C@@H]1CCC(=O)N1,334%
6,Nc1ccc(S(=O)(=O)[O-])cc1.Nc1ccc(S(=O)(=O)[O-])cc1.O.O.O.O.[Zn+2],181%
7,C#Cc1cccc(Nc2ncnc3cc(OCCOC)c(OCCOC)cc23)c1 [erlotinib],142%
8,CCCCCCCCCC(=O)N[C@H]1[C@H](Oc2c3cc4cc2Oc2ccc(cc2Cl)[C@@H](O[C@@H]2O[C@H](CO)[C@@H](O)[C@H](O)[C@H]2NC(C)=O)[C@@H]2NC(=O)[C@H](NC(=O)[C@@H]4NC(=O)[C@H]4NC(=O)[C@@H](Cc5ccc(c(Cl)c5)O3)NC(=O)[C@H](N)c3ccc(O)c(c3)Oc3cc(O)cc4c3)c3ccc(O)c(c3)-c3c(OC4O[C@H](CO)[C@@H](O)[C@H](O)[C@@H]4O)cc(O)cc3[C@@H](C(=O)O)NC2=O)O[C@H](CO)[C@@H](O)[C@@H]1O (stereo not given in full),156%
9,Cc1cc2nc3c(=O)[nH]c(=O)nc-3n(C[C@H](O)[C@H](O)[C@H](O)CO)c2cc1C,339%
10,CN(C)C(=O)CCS[C@H](SCCC(=O)O)c1cccc(/C=C/c2ccc3ccc(Cl)cc3n2)c1 [verlukast],113%
11,CCN[C@H]1CN(CCCOC)S(=O)(=O)c2sc(S(N)(=O)=O)cc21 [brinzolamide],170% and 194%
12,CCCCCCCCCCCCCCCC(=O)OC[C@@H](O)[C@H]1OC[C@H](O)[C@H]1O [sorbitan palmitate],145%
13,C[C@@H](O[C@H]1OCCN(Cc2nn(P(=O)(O)O)c(=O)[nH]2)[C@H]1c1ccc(F)cc1)c1cc(C(F)(F)F)cc(C(F)(F)F)c1 [Fosaprepitant],264%
14,CC1(C)S[C@@H]2[C@H](NC(=O)C3(N)CCCCC3)C(=O)N2[C@H]1C(=O)O [ciclacillin],106%
15,Cc1cc(CC(=O)O)c(C)n1-c1ccc(Cl)cc1 [clopirac],190%
16,C[C@@H](O)[C@H]1C(=O)N2C(C(=O)O)=C(SCCNC=N)C[C@H]12 [Imipenem],125%
17,CN(CCOP(=O)(O)O)C(=N)N [creatinolfosfate],164%
18,CC(C)C[C@H](N)C(=O)O [leucine],107%
19,O=C(O)C(Cc1cc(I)c(O)c(I)c1)c1ccccc1 (stereo not given) [pheniodol],132%
20,CCC[C@@H]1C[C@@H](C(=O)N[C@@H]([C@H]2O[C@H](SC)[C@H](O)[C@@H](O)[C@H]2O)[C@@H](C)O)N(C)C1 [lincomycin],323%

row,SMILES,percent viability
1,CCN(CC)CC(=O)Nc1c(C)cccc1C [Lidocaine·HCl·H2O],316%
2,COc1cc(CNC(=O)CCCC/C=C/C(C)C)ccc1O [capsaicin],157% and 402%
3,Cn1c(=O)c2[nH]cnc2n(C)c1=O [Aminophylline],141%
4,Cc1ncc(C[n+]2csc(CCO)c2C)c(N)n1,343%
5,Brc1c(NC2=NCCN2)ccc2nccnc12 [brimonidine],166%
6,CCOc1nc2cccc(C(=O)O)c2n1Cc1ccc(-c2ccccc2-c2nnn[nH]2)cc1 [candesartan],233%
7,O=C(CCCCCl)NNC(=O)N1Cc2ccccc2Oc2ccc(Cl)cc21 [pinadoline],167%
8,CCC1Nc2cc(Cl)c(S(N)(=O)=O)cc2S(=O)(=O)N1 (stereo not given) [ethiazide],194%
9,CC[C@@H](NC(C)C)[C@@H](O)c1ccc(O)c2[nH]c(=O)ccc12 [Procaterol·HCl],300%
10,CC/C=C\C/C=C\C/C=C\CCCCCCCC(=O)O,177% and 171%
11,CN1C(=O)C(N2CCCCC2)S/C1=C\C(=O)O (stereo not given) [ozolinone],175%
12,COc1ccc(-c2nc(C(F)(F)F)sc2-c2ccc(OC)cc2)cc1 [itazigrel],139%
13,CC(C)(C)NC(=O)[C@@H]1C[C@@H]2CCCC[C@@H]2CN1C[C@@H](O)[C@H](Cc1ccccc1)NC(=O)[C@H](CC(N)=O)NC(=O)c1ccc2ccccc2n1 [Invirase],353%
14,Oc1ncnc2[nH]ncc12 [allopurinol],221%
15,NCCC[C@H](N)CC(=O)N[C@H]1CNC(=O)[C@H]([C@H]2C[C@H](O)NC(N)=N2)NC(=O)/C(=C/NC(N)=O)NC(=O)[C@H](CO)NC(=O)[C@H](CO)NC1=O [viomycin],97.6%
16,COc1ccc2c(c1)c(CC(=O)O)c(C)n2C(=O)c1ccc(Cl)cc1 [indometacin],178% and 369%
17,CCCCC(CC)COC(=O)C(C#N)=C(c1ccccc1)c1ccccc1 (stereo not given) [octocrilene],16.4%
18,OC[C@H]1O[C@@H](c2ccc(Cl)c(Cc3ccc(O[C@H]4CCOC4)cc3)c2)[C@H](O)[C@@H](O)[C@@H]1O [Empagliflozin],70.7%
19,CC1=C(C(=O)O)N2C(=O)[C@@H](NC(=O)[C@H](N)c3ccc(O)cc3)[C@H]2SC1 [cefadroxil],191%
20,O=C(O)C(=O)O.[NH-][C@@H]1CCCC[C@H]1[NH-].[Pt+2] [Oxaliplatin],277%

# Three compounds already listed, sorted by length of the SMILES, rising.
row,SMILES,percent viability
10,CC/C=C\C/C=C\C/C=C\CCCCCCCC(=O)O,177% and 171%
16,COc1ccc2c(c1)c(CC(=O)O)c(C)n2C(=O)c1ccc(Cl)cc1 [indometacin],178% and 369%
18,OC[C@H]1O[C@@H](c2ccc(Cl)c(Cc3ccc(O[C@H]4CCOC4)cc3)c2)[C@H](O)[C@@H](O)[C@@H]1O [Empagliflozin],70.7%
